Reference: patent publication US10597433B2, “Peptides and combination of peptides for use in immunotherapy against small cell lung cancer and other cancers” (Immatics Biotechnologies GmbH, priority 2015, dated 2020)

Legend:
[1] = system: small cell lung cancer samples; experiment: Identification and label-free LC-MS quantitation of HLA-presented peptides on tumor versus normal tissues (presentation profile/score); parameters: species or system human; key: very highly over-presented on tumors compared to a panel of normal tissues (+++); highly over-presented on tumors compared to a panel of normal tissues (++); over-presented on tumors compared to a panel of normal tissues (+); conditions: small cell lung cancer tumors compared to a panel of normal tissues
[2] = system: other cancer tissues and cancer cell lines; experiment: Additional LC-MS detection of the peptide on other cancer samples and cell lines (FIG. 1A-1D); parameters: species or system human

Substance	Peptide Presentation (presentation score) [1]	other results
50 (FLLSQIVAL; listed as Homo sapiens) [compound 50]	+++	
51 (ILDEAGVKYFL; listed as Homo sapiens) [compound 51]	+++	
52 (ILASFMLTGV; listed as Homo sapiens) [compound 52]	+++	
54 (HLFDIILTSV; listed as Homo sapiens) [compound 54]	++	
55 (LLIADNPQL; listed as Homo sapiens) [compound 55]	+++	
56 (SLFSQMGSQYEL; listed as Homo sapiens) [compound 56]	+++	
57 (VLIGDVLVAV; listed as Homo sapiens) [compound 57]	+++	
58 (VLLNINGIDL; listed as Homo sapiens) [compound 58]	+++	
59 (VLLSGLTEV; listed as Homo sapiens) [compound 59]	+++	
60 (VVSGATETL; listed as Homo sapiens) [compound 60]	+++	
61 (YQAPYFLTV; listed as Homo sapiens) [compound 61]	+++	
62 (VMLPIGAVVMV; listed as Homo sapiens) [compound 62]	+++	
63 (LLMSTENEL; listed as Homo sapiens) [compound 63]	++	
64 (VLFHQLQEI; listed as Homo sapiens) [compound 64]	+	
65 (VMYDLITEL; listed as Homo sapiens) [compound 65]	++	
66 (YLNLISTSV; listed as Homo sapiens) [compound 66]	+++	
67 (MLYDIVPVV; listed as Homo sapiens) [compound 67]	+	
68 (FLFPVYPLI; listed as Homo sapiens) [compound 68]	+	
69 (KLFDRSVDL; listed as Homo sapiens) [compound 69]	++	
70 (TLLWKLVEV; listed as Homo sapiens) [compound 70]	+++	
72 (KAIGSLKEV; listed as Homo sapiens) [compound 72]	+++	
73 (SLSSYTPDV; listed as Homo sapiens) [compound 73]	+++	
74 (FLDSLSPSV; listed as Homo sapiens) [compound 74]	+++	

Substance	Peptide Presentation (presentation score) [1]	other results
75 (SLDLHVPSL; listed as Homo sapiens) [compound 75]	+++	
76 (VLTTVMITV; listed as Homo sapiens) [compound 76]	+++	
78 (RIIDPEDLKALL; listed as Homo sapiens) [compound 78]	+++	
79 (RLLEPAQVQQL; listed as Homo sapiens) [compound 79]	++	
80 (ILMDPSPEYA; listed as Homo sapiens) [compound 80]	+++	
81 (LLAEIGAVTLV; listed as Homo sapiens) [compound 81]	++	
82 (ALSSVIKEL; listed as Homo sapiens) [compound 82]	+	
83 (KLLEIDIDGV; listed as Homo sapiens) [compound 83]	+	
84 (KMFENEFLL; listed as Homo sapiens) [compound 84]	+	
85 (FAYDGKDYLTL; listed as Homo sapiens) [compound 85]	+	
86 (KVIDYVPGI; listed as Homo sapiens) [compound 86]	+	
87 (LLQNNLPAV; listed as Homo sapiens) [compound 87]	+	
88 (TLHRETFYL; listed as Homo sapiens) [compound 88]	+++	
89 (IQHDLIFSL; listed as Homo sapiens) [compound 89]	+	
90 (TLVDNISTMAL; listed as Homo sapiens) [compound 90]	+	
95 (ALYSKGILL; listed as Homo sapiens) [compound 95]	+	
96 (NLLKLIAEV; listed as Homo sapiens) [compound 96]	+	
97 (ALLDGTVFEI; listed as Homo sapiens) [compound 97]	++	
98 (ALVDHLNVGV; listed as Homo sapiens) [compound 98]	+	
99 (QMLEAIKALEV; listed as Homo sapiens) [compound 99]	++	
100 (VADPETRTV; listed as Homo sapiens) [compound 100]	+	
101 (AMNSQILEV; listed as Homo sapiens) [compound 101]	+	
103 (SLLEYQMLV; listed as Homo sapiens) [compound 103]	+	

Substance	Peptide Presentation (presentation score) [1]	other results
105 (SMYDKVLML; listed as Homo sapiens) [compound 105]	+	
106 (KMPDDVWLV; listed as Homo sapiens) [compound 106]	+	
107 (AMYGTKLETI; listed as Homo sapiens) [compound 107]	+	
110 (GLTETGLYRI; listed as Homo sapiens) [compound 110]	+++	
111 (FLPEAPAEL; listed as Homo sapiens) [compound 111]	+++	
112 (LLLPGVIKTV; listed as Homo sapiens) [compound 112]	+++	
114 (ALLEPGGVLTI; listed as Homo sapiens) [compound 114]	+++	
115 (ALLPSDCLQEA; listed as Homo sapiens) [compound 115]	+++	
116 (ALLVRLQEV; listed as Homo sapiens) [compound 116]	+++	
117 (FLLDSAPLNV; listed as Homo sapiens) [compound 117]	+	
118 (KLPSFLANV; listed as Homo sapiens) [compound 118]	+++	
119 (SLIDDNNEINL; listed as Homo sapiens) [compound 119]	+	
120 (SLAADIPRL; listed as Homo sapiens) [compound 120]	++	
121 (YMLEHVITL; listed as Homo sapiens) [compound 121]	+	
124 (SLITDLQTI; listed as Homo sapiens) [compound 124]	++	
125 (LLSEPSLLRTV; listed as Homo sapiens) [compound 125]	+++	
126 (AAASLIRLV; listed as Homo sapiens) [compound 126]	+++	
AMLEEVNYI (listed as Homo sapiens) [SEQ ID NO: 1]		peptide detected on samples (positive/measured) ([2]; Non-Hodgkin lymphomas): 4/16; peptide detected on samples (positive/measured) ([2]; chronic lymphocytic leukemias): 2/17; peptide detected on samples (positive/measured) ([2]; colorectal cancer): 1/27; peptide detected on samples (positive/measured) ([2]; pancreatic cancer cell lines): 1/20; peptide detected on samples (positive/measured) ([2]; pancreatic cancers): 3/19
GLDPTQFRV (listed as Homo sapiens) [SEQ ID NO: 39]		peptide detected on samples (positive/measured) ([2]; Non-Hodgkin lymphomas): 1/16; peptide detected on samples (positive/measured) ([2]; ovarian cancers): 1/20; peptide detected on samples (positive/measured) ([2]; pancreatic cancer cell lines): 1/20; peptide detected on samples (positive/measured) ([2]; urinary bladder cancer): 1/20
GLLEVQVEV (listed as Homo sapiens) [SEQ ID NO: 40]		peptide detected on samples (positive/measured) ([2]; ovarian cancers): 1/20; peptide detected on samples (positive/measured) ([2]; pancreatic cancer cell lines): 1/20
VLAEIDPKQLV (listed as Homo sapiens) [SEQ ID NO: 3]		peptide detected on samples (positive/measured) ([2]; esophageal cancer): 1/20; peptide detected on samples (positive/measured) ([2]; liver cancers): 2/16; peptide detected on samples (positive/measured) ([2]; ovarian cancers): 2/20
